According to publication PMC9634073:
Results are given in words; binding and its absence hold for the method and conditions named. Binding seen in cells or lysates may run through a third protein. Some results given as binding are weak or reduced against the parent protein; the word gives no strength. Where a sequence is shown, tags or fusion partners need not be part of it.

Chains of the proteins cited; added tags and fusions are not shown.
UniProt P25696: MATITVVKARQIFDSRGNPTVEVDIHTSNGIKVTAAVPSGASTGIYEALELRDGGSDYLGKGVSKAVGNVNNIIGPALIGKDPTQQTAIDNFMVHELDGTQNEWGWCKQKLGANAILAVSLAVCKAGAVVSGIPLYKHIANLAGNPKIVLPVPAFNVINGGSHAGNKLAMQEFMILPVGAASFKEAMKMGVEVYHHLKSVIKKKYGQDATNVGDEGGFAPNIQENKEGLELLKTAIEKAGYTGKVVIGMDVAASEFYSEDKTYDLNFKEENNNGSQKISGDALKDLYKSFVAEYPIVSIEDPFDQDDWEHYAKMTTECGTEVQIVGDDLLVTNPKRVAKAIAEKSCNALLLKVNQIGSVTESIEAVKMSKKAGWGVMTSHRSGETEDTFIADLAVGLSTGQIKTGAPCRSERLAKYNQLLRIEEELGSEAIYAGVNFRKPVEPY

Key:
[1] = molecular target: T1, Glyceraldehyde-3-phosphate dehydrogenase GAPA1, chloroplastic, fused to cLuc (Arabidopsis thaliana) (UniProt P25856); experiment: split reporter; luciferase complementation assay (LCA); pairs of Agrobacterium GV3101 strains cotransformed into four-week N. benthamiana leaves; 21°C, 24 h dark then 48 h light; signals detected with CCD
T1 sequence: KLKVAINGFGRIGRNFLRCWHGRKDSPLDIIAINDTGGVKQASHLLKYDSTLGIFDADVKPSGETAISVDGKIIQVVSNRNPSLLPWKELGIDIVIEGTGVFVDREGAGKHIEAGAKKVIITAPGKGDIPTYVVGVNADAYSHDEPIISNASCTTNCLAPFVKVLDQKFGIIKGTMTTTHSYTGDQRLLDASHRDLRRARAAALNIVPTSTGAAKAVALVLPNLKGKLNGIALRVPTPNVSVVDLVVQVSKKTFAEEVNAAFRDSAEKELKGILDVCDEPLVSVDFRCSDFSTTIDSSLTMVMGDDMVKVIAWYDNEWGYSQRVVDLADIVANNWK

[2] = molecular target: T2, Glyceraldehyde-3-phosphate dehydrogenase GAPB, chloroplastic, fused to cLuc (Arabidopsis thaliana) (UniProt P25857); experiment: as above
T2 sequence: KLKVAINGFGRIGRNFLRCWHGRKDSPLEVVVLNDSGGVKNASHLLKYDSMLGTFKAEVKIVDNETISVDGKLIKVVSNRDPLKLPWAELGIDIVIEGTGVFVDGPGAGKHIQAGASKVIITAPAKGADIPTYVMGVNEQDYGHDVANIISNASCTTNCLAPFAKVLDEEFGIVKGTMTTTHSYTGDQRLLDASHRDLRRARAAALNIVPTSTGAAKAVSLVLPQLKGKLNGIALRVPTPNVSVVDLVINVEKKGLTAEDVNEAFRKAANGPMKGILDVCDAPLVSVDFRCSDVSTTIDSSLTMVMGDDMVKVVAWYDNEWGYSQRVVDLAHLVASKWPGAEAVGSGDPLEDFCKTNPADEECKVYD

AtENO2 (enolase 2) fused to nLuc (from UniProt P25696 1-444) (enzyme)
binding [1]: binds | binding [2]: binds
